Results on one substance are retold here after article PMC10374912 (Nature Communications, 2023).

The assay deals with 3XHA-tagged Zcf2 (C. albicans). As to the kind of experiment: co-IP; C. albicans whole cell lysates from YPGal cultures before and after AA or KCN treatment; anti-Flag or anti-HA antibody, Protein G Dynabeads; F300 buffer (50 mM HEPES-KOH pH 7.2, 300 mM KOAc, 10% glycerol) with 0.02% IGEPAL-CA630; Benzonase-treated; immunoblot.

Results are given in words; binding and its absence hold for the method and conditions named. In cells and extracts the contact can be indirect.

For the substance “3XHA-tagged Zcf2 (from UniProt A0A1D8PDI4 1-775)”, the binding entry was “no binding”.
